According to PubChem BioAssay AID2685 (National Center for Advancing Translational Sciences (NCATS), 2010):
This is one part of the list. Further columns of the screen follow, without active or inactive calls. Most of these compounds were active or inconclusive in the main read-out, so they are no random draw. Potencies come from curve fits of mixed quality, noted in brackets.

Assay: qHTS Assay for Lipid Storage Modulators in Drosophila S3 Cells;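 as to cell number change: cells counted by Cell Tracker Red CMTPX staining in the red channel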
Details: BODIPY lipid droplet fluorescence, 18-24 h; for cell number change: measured here: cell count max response, cells fed with added oleic acid
Summary of the method: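 Drosophila S3 cells got compounds at several concentrations plus oleic acid (400 uM solution). Laser-scanning cytometry with 488 nm excitation read lipid droplets at 500-530 nm and cells at 575-640 nm. Percent activity was relative to 20 uM Triacsin C.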

[1] = measured here: cell number channel AC50, cells fed with added oleic acid
[2] = measured here: lipid fluorescence (Fed channel) AC50, cells fed with added oleic acid

SMILES	cell number change [%]	AC50 [1]	AC50 [2]
COc1ccc2cc(C)c(SCC(=O)Nc3cc(C)on3)nc2c1	26	–	–
Cc1cc(Oc2cc(N)cc([N+](=O)[O-])c2)ccc1Cl	-55.2	2.91 µM [rising, single point]	32.6 µM [falling, single point]
CC(C)(C)NC(=O)CN(Cc1cccnc1)C(=O)c1csnn1	-21.9	0.00731 µM [falling, full curve, poor fit]	6.51 µM [rising, single point]
CC1CCN(S(=O)(=O)c2ccc3nc(N4CCN(c5ccccc5)CC4)ccc3c2)CC1	-13.7	–	14.6 µM [rising, partial curve]
c1ccc2c(c1)CCc1snnc1-2	20.8	–	29.1 µM [rising, single point]
COc1ccc(NC(=O)CCSc2ccc(C)cc2)cc1	6.59	–	0.184 µM [rising, partial curve]
O=C(/C(=C/O)N=Nc1ccccc1Cl)c1ccccc1	-64.7	29.1 µM [falling, single point]	29.1 µM [falling, single point]
COc1cccc2cc(C(=O)NC(C)C3CCCO3)c(=O)oc12 (stereo unspecified)	45.6	4.11 µM [rising, full curve]	–
NC(=O)c1cc2c3ccccc3ccn2c1-c1ccccc1	-2.44	–	29.1 µM [falling, single point]
O=[N+]([O-])c1cccc(S(=O)(=O)NCCCn2ccnc2)c1	23.5	–	–
O=S1(=O)CCC(N=Cc2cc(Br)ccc2O)C1 (stereo unspecified)	–	0.92 µM [falling, full curve, poor fit]	0.651 µM [falling, full curve]
Nc1nonc1C(=O)NCCNCc1cc(Br)ccc1OCc1ccccc1F	-11.6	0.58 µM [rising, single point]	29.1 µM [falling, single point]
O=C(NCc1cccs1)C1CC(=O)N(c2ccc(F)cc2)C1 (stereo unspecified)	2.28	–	–
COc1ccc(NC(=O)CSc2nncn2C)cc1	35.6	29.1 µM [rising, partial curve]	11.6 µM [rising, partial curve]
Cc1ccc(C(=O)N/N=C/c2ccc(OC(=O)c3ccccc3Cl)cc2)cn1	497	29.1 µM [rising, partial curve]	5.17 µM [rising, single point]
COc1cc(CNC(C)c2ccccc2)cc(Cl)c1OCC(=O)Nc1ccccc1 (stereo unspecified)	-65.3	35.5 µM [falling, single point]	25.1 µM [falling, single point]
CCOC(=O)N1CCN(C2=C(NS(=O)(=O)c3ccccc3)C(=O)c3ccccc3C2=O)CC1	-8.96	–	6.51 µM [falling, single point]
CC(NC(=O)C1CCCN1S(=O)(=O)c1ccc2c(c1)n(C)c(=O)c(=O)n2C)c1ccccc1 (stereo unspecified)	-26.9	–	2.06 µM [rising, partial curve]
O=C(Cn1ncc2c1-c1ccccc1OC2)Nc1nc2ccccc2s1	-6.14	–	29.1 µM [falling, single point]
Cc1cccc(N(CC(=O)N2CCCC2)S(C)(=O)=O)c1	23	–	29.1 µM [rising, single point]

Part of the list above, reformatted.
SMILES | cell number change [%] | AC50 [1] | AC50 [2]
COc1ccc2cc(C)c(SCC(=O)Nc3cc(C)on3)nc2c1 | 26 | – | –
Cc1cc(Oc2cc(N)cc([N+](=O)[O-])c2)ccc1Cl | -55.2 | 2.91 µM [rising, single point] | 32.6 µM [falling, single point]
CC(C)(C)NC(=O)CN(Cc1cccnc1)C(=O)c1csnn1 | -21.9 | 0.00731 µM [falling, full curve, poor fit] | 6.51 µM [rising, single point]
c1ccc2c(c1)CCc1snnc1-2 | 20.8 | – | 29.1 µM [rising, single point]
COc1ccc(NC(=O)CCSc2ccc(C)cc2)cc1 | 6.59 | – | 0.184 µM [rising, partial curve]
O=C(/C(=C/O)N=Nc1ccccc1Cl)c1ccccc1 | -64.7 | 29.1 µM [falling, single point] | 29.1 µM [falling, single point]
COc1cccc2cc(C(=O)NC(C)C3CCCO3)c(=O)oc12 (stereo unspecified) | 45.6 | 4.11 µM [rising, full curve] | –
NC(=O)c1cc2c3ccccc3ccn2c1-c1ccccc1 | -2.44 | – | 29.1 µM [falling, single point]
O=[N+]([O-])c1cccc(S(=O)(=O)NCCCn2ccnc2)c1 | 23.5 | – | –
Nc1nonc1C(=O)NCCNCc1cc(Br)ccc1OCc1ccccc1F | -11.6 | 0.58 µM [rising, single point] | 29.1 µM [falling, single point]
O=C(NCc1cccs1)C1CC(=O)N(c2ccc(F)cc2)C1 (stereo unspecified) | 2.28 | – | –
Cc1ccc(C(=O)N/N=C/c2ccc(OC(=O)c3ccccc3Cl)cc2)cn1 | 497 | 29.1 µM [rising, partial curve] | 5.17 µM [rising, single point]
CCOC(=O)N1CCN(C2=C(NS(=O)(=O)c3ccccc3)C(=O)c3ccccc3C2=O)CC1 | -8.96 | – | 6.51 µM [falling, single point]
O=C(Cn1ncc2c1-c1ccccc1OC2)Nc1nc2ccccc2s1 | -6.14 | – | 29.1 µM [falling, single point]
Cc1cccc(N(CC(=O)N2CCCC2)S(C)(=O)=O)c1 | 23 | – | 29.1 µM [rising, single point]

Additional results follow.

SMILES	cell number change [%]	AC50 [1]	AC50 [2]
CCCC[C@@H]1CNCCN1CCc1cccc(F)c1	11	–	29.1 µM [rising, single point]
O=C1N=C2SCCN2/C1=C\c1c(Cl)cccc1Cl	62.2	29.1 µM [rising, single point]	–
O=C(c1cnccn1)N(Cc1ccco1)C1(C(=O)NC2CCCC2)CCCCC1	10.1	–	29.1 µM [rising, single point]
Cc1ccc(C2=NN(C(=O)COc3ncnc4ccccc34)C(c3ccco3)C2)cc1 (stereo unspecified)	4.78	4.61 µM [rising, single point]	4.11 µM [rising, partial curve]
Cc1ccccc1-n1c(SC(C)C(N)=O)nnc1-c1cccnc1 (stereo unspecified)	8.88	–	0.0651 µM [falling, full curve, poor fit]
COc1ccc(CNC(=O)C(C)OC(=O)c2cccn2C)cc1 (stereo unspecified)	13.4	–	–
Cc1cc(C)cc(NC2=C(N)C(=O)c3ccccc3C2=O)c1	-31	0.231 µM [falling, partial curve, poor fit]	0.651 µM [falling, full curve]
COCCn1c(SCCCC(=O)c2ccc(Br)cc2)nnc1-c1ccncc1	239	18.4 µM [rising, single point]	29.1 µM [rising, single point]
O=C(NC(=S)NCc1cccnc1)c1cc(Br)ccc1Cl	-25.8	–	1.16 µM [falling, full curve]
O=C(/C=C/c1ccc(F)cc1)NCCCn1ccnc1	14.8	–	29.1 µM [rising, single point]
NNc1nc(N)c2c(n1)-c1ccccc1CC21CCCC1	2.62	–	0.184 µM [rising, single point]
O=C(OCc1ccc(F)cc1Cl)c1ccccn1	-35.4	32.6 µM [falling, single point]	–
CC(=O)c1ccc(NC(=O)c2cccc(N3C(=O)c4ccccc4C3=O)c2)cc1	-0.431	–	0.58 µM [rising, single point]
COc1ccc2cc(C(=O)NCc3ccccc3)c(=Nc3ccc(C(=O)O)cc3)oc2c1	23.7	0.326 µM [rising, full curve, poor fit]	2.59 µM [rising, partial curve, poor fit]
CN(CC(=O)Nc1ccc(S(=O)(=O)N2CCCC2)cc1)CC(=O)Nc1ccc(F)c(F)c1F	-0.481	–	0.461 µM [rising, full curve, poor fit]
COc1ccccc1NC(=O)C1C2C=CC(O2)C1C(=O)O (stereo unspecified)	36.5	18.4 µM [rising, single point]	29.1 µM [rising, single point]
COc1ccc(S(=O)(=O)N2CCCC2C(=O)NCC(=O)Nc2cccc(Cl)c2C)cc1 (stereo unspecified)	–	–	5.17 µM [rising, single point]
O=C(c1ccc2nc[nH]c2c1)N1CCN(S(=O)(=O)c2cccc(F)c2)CC1	-21.9	–	20.6 µM [falling, single point]
O=C(N/C(=C/C=C/c1ccccc1)C(=O)N1CCOCC1)c1ccccc1Cl	41.3	20.6 µM [rising, single point]	–
CCOC(=O)N1CCN(C(=O)c2ccc3c(=O)n(Cc4ccc(Cl)cc4)c(=S)[nH]c3c2)CC1	-16.8	–	29.1 µM [falling, partial curve, poor fit]

SMILES	cell number change [%]	AC50 [1]	AC50 [2]
CN(C)c1ccc(C=C(c2nnnn2-c2ccccc2)c2nnnn2-c2ccccc2)cc1	14.9	–	0.0731 µM [rising, full curve]
COc1cc(NC(=O)CCN2CC(C)OC(C)C2)cc(OC)c1 (stereo unspecified)	23	–	–
COc1ccc(S(=O)(=O)N2CCOCC2)cc1NC(=O)/C=C/c1ccc(F)cc1	-75	0.231 µM [falling, full curve, poor fit]	–
CNc1oc(Cc2cccc3ccccc23)nc1C#N	6.23	–	–
COc1ccc2nc(NC3=NC(C(=O)Nc4ccc(C)cc4)CC(=O)N3)nc(C)c2c1 (stereo unspecified)	-15.4	6.51 µM [rising, single point]	–
Cc1cccc(Oc2ccccc2NC(=O)c2cnccn2)c1	–	1.03 µM [rising, partial curve]	0.366 µM [rising, partial curve, poor fit]
CCC(C)NC(=S)N(CCc1ccccc1)Cc1cc2cc(OC)c(OC)cc2[nH]c1=O (stereo unspecified)	55.4	0.92 µM [rising, full curve]	23.1 µM [falling, partial curve]
O=C(NCCN1C(=O)CSC1=O)C1CC(=O)N(c2ccccc2)C1 (stereo unspecified)	-36.4	0.0731 µM [falling, full curve, poor fit]	1.64 µM [falling, partial curve]
CC(=O)C1=C(C)NC(=O)NC1c1ccccc1OCC(=O)NCCc1ccccc1 (stereo unspecified)	94.8	14.6 µM [rising, partial curve]	–
Cc1cc(N2CCN(c3ccccc3)CC2)nc(-c2ccccc2)n1	-11.4	–	–
O=C(/C=C/c1ccccc1)NC(=S)Nc1cccnc1	-24.5	–	3.26 µM [falling, full curve]
CSc1ccc(CNc2nc3ccccc3n3cnnc23)cc1	-4.91	–	–
O=C(Oc1nsnc1N1CCOCC1)N(c1ccccc1)c1ccccc1	32.9	0.92 µM [rising, full curve, poor fit]	29.1 µM [falling, partial curve]
CCN1CCN(CCCNC(=O)Cn2nc(C)n3nc(-c4ccccc4)cc3c2=O)CC1	-2.69	–	–
CCOP(=O)(OCC)C(NCc1ccccc1)c1ccc(Br)cc1 (stereo unspecified)	-42.3	32.6 µM [falling, single point]	–
O=C(NC(=S)NCC1CCCO1)c1ccccc1F (stereo unspecified)	-37.6	–	–
COc1ccc(NC(=O)CN2CCc3ccccc3C2)cc1S(=O)(=O)N1CCOCC1	-6.99	–	2.59 µM [falling, partial curve]
Cc1cc(S(=O)(=O)NCc2ccccc2)ccc1OCC(=O)Nc1cccc([N+](=O)[O-])c1	-52.2	29.1 µM [falling, single point]	23.1 µM [falling, single point]
